The text below walks through data of patent US20060239990A1, “Protein Arginine N-Methyltransferase 2 (PRMT-2)” (priority 2003, published 2006).

Protein sequences, listed by entry. Tags and fused reporters are not part of them. Residues count along the entry.
UniProt Q04206: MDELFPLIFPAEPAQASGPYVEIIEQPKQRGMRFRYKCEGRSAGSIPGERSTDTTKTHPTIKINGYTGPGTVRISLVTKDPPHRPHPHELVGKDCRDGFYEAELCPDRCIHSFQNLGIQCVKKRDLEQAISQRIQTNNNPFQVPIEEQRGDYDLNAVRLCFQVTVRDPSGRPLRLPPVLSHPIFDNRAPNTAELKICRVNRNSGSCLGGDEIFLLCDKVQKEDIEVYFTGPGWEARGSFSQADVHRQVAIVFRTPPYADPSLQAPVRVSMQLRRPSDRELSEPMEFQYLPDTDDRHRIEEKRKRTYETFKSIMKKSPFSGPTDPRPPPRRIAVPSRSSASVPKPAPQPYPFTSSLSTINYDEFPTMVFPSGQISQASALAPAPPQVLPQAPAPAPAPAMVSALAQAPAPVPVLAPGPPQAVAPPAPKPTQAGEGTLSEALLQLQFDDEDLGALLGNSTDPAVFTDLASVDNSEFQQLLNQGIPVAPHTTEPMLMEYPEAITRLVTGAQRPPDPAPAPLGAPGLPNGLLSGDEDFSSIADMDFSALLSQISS
UniProt P19838, residues 1-433: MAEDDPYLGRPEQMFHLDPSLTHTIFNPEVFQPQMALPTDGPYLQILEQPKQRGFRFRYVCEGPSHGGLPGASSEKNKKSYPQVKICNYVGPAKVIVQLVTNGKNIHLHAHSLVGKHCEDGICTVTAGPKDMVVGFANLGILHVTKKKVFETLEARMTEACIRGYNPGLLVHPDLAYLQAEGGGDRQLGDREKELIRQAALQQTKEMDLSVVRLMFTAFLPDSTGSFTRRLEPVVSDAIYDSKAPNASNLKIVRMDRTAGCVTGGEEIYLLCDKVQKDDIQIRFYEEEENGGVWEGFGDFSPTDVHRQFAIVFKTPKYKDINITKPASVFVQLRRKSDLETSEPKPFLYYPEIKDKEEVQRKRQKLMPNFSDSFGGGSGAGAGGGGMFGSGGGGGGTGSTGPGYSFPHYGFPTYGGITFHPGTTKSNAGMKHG

These are yes or no findings as the source states them, for the method shown. Some binding calls cover weakened binding; strength is not graded here.

Assay [1] has as its target RelA (p65) in 293 cells (UniProt Q04206). Description: immunoprecipitation with p65 antibody from PRMT2 or PRMT2-N transfected 293 whole cell extracts, Western blot for p50.
Assay [2] has the same target. The assay can be described thus: immunoprecipitation with anti-p65 antibody from transfected 293 cell nuclear extracts, Western blot for p50.

Consider “NF-κB1 (p50) in 293 cells (from UniProt P19838 1-433)”, for which the binding result with RelA (p65) in 293 cells [1] and with RelA (p65) in 293 cells [2] was “binds” throughout.
